# This is one part of the list.
# Sequences of proteins named here, by UniProt entry; tags and fusion partners are left off.
# UniProt Q0JBA9, entry or part of it: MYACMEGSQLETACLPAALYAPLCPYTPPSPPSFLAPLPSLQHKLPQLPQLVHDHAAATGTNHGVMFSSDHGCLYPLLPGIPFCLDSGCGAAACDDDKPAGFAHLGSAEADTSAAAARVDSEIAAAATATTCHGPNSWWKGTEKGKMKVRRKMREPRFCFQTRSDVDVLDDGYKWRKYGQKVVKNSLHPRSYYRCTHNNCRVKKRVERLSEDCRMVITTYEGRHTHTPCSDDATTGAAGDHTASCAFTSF
# Biological target: OsWRKY34 (Oryza sativa, UniProt Q0JBA9 1-250)
# Experiment: protein-binding microarray (RPBM); PBS, 2% BSA, 51.3 ng/ul salmon testes DNA, 50 uM zinc acetate, 200 nM TF, 25 C, 1 h; high values mean tight binding
# Conditions: protein: recombinant; tags: N-terminal polyhistidine and DsRed monomer fusion (pET32a); label: CyDye5-dUTP incorporated in the synthesized complementary strand; 3' TTTTT single-stranded linker to array surface; dsDNA, one strand shown
# How it was run: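 The binding signal is fluorescence intensity per array feature (arbitrary units). Readings came from an Axon 4000B scanner after a washed, 2% BSA-blocked, double-stranded custom Agilent array had been incubated for 1 h at 25 °C with 200 nM protein and 50 µM zinc acetate. The protein was a Ni–NTA-purified transcription factor fused N-terminally to polyhistidine and DsRed, expressed in E. coli BL21-CodonPlus.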
row,Sequence,binding signal
1,GCCCATTTATTGTTTTGTATTTGGTAGCTCTGTATAGCATCGGAGTCACCTAGTGCAG,8260 fluorescence intensity (a.u.)
2,ACTCTATGTGCTAATGTCATACCATCGTCAACACGATAGCCGGAGTCACCTAGTGCAG,8610 fluorescence intensity (a.u.)
3,ACTTCCTCCGCCTCATTTTCCGCGCGTACGTTTCCCAAACCGGAGTCACCTAGTGCAG,9100 fluorescence intensity (a.u.)
4,ATTGTGATTTTGCGAGGGCTTTCGCTGTTCTTGATTCCAGCGGAGTCACCTAGTGCAG,8120 fluorescence intensity (a.u.)
5,TCAGAGGGCCTTATATTGTATGTTATGTAGTGAGATTAAACGGAGTCACCTAGTGCAG,11400 fluorescence intensity (a.u.)
6,CCTCTTCTAATATTCCTTATTTTTTTTAATTTCGAATTTCCGGAGTCACCTAGTGCAG,10700 fluorescence intensity (a.u.)
7,CATCCCCACCCTCGCCGTCGCCGCCGCCCACCTCACCGTCCGGAGTCACCTAGTGCAG,9850 fluorescence intensity (a.u.)
8,TTGCTCTTGAGTCATCATCTGATCATATTCAATTCTTTATCGGAGTCACCTAGTGCAG,8540 fluorescence intensity (a.u.)
9,ACGCGATACGTGTGCCGCGCGGATACATCATACAAGTCGCCGGAGTCACCTAGTGCAG,9050 fluorescence intensity (a.u.)
10,TTATTCGGTTTGTCACCCTTCCCATTTCCTTCATACCAGTCGGAGTCACCTAGTGCAG,9100 fluorescence intensity (a.u.)
11,GTCAGGTACCCGATCCTGCCGCTGCTCCATCATCCGCGATCGGAGTCACCTAGTGCAG,11000 fluorescence intensity (a.u.)
12,ACACTATCATATATACTTCCGTCCCAAAACGTAGCTACCTCGGAGTCACCTAGTGCAG,8230 fluorescence intensity (a.u.)
13,TCACTTCCTTCTTTTCTTTTCAGCCCAGCAAAAAGTCTACCGGAGTCACCTAGTGCAG,9150 fluorescence intensity (a.u.)
14,CGTGTCGCACCACATCCAGCGTCCCACGGCCTACCACCGCCGGAGTCACCTAGTGCAG,8700 fluorescence intensity (a.u.)
15,CATTTGTCTGACGTTGCCTGTCCAAGTTCATTGTCCTAAGCGGAGTCACCTAGTGCAG,10100 fluorescence intensity (a.u.)
16,AGCACCTTATCTTGCTCATCTTTATTTCTAGTTTGAGGCACGGAGTCACCTAGTGCAG,8230 fluorescence intensity (a.u.)
17,AAGTACTTTAAGCACAACTTTTCGTTTTCTATATTTGCACCGGAGTCACCTAGTGCAG,8230 fluorescence intensity (a.u.)
18,TCTCTGTCTCCGTATTGACCGTTCTTCTGCCTTGTCGGAACGGAGTCACCTAGTGCAG,9560 fluorescence intensity (a.u.)
19,GTGTCAGCGTATTTCACTCTTCTTAATTAGTTGCTTATAGCGGAGTCACCTAGTGCAG,9110 fluorescence intensity (a.u.)
20,AAAGTGACAGTTGAATTATTCTGTGCAATGCTTGTTTTCTCGGAGTCACCTAGTGCAG,10200 fluorescence intensity (a.u.)
21,CATGAGTAGTGAAAGTGTTTTTGTTTGCCTGTCGTTGATACGGAGTCACCTAGTGCAG,9620 fluorescence intensity (a.u.)

row,Sequence,binding signal
1,CGCCGTCATCGCCGCCGCCGCCGCCGCCGCCGCATTTGTACGGAGTCACCTAGTGCAG,8890 fluorescence intensity (a.u.)
2,ACGACATTCGCTCACTCACGGCAGGCTATATCTATTTATCCGGAGTCACCTAGTGCAG,9740 fluorescence intensity (a.u.)
3,CACCATCGCTGCACACTTTTTCTCCTCCTCACTGTCACACCGGAGTCACCTAGTGCAG,9180 fluorescence intensity (a.u.)
4,AAATCTGTTGCTAGCTGTATTATATTGTCTGTTTTCTCTTCGGAGTCACCTAGTGCAG,11900 fluorescence intensity (a.u.)
5,TTACGACGGGTGAGCTATTTTAATCTTATTCTATTGTTATCGGAGTCACCTAGTGCAG,10500 fluorescence intensity (a.u.)
6,GGGGAGCTCGGGTACGTGGTGGCGCGCGCGCACTGGGGCACGGAGTCACCTAGTGCAG,8090 fluorescence intensity (a.u.)
7,AACTCACTCTTACACCTACATACTCATTCATCAAATCCAACGGAGTCACCTAGTGCAG,8120 fluorescence intensity (a.u.)
8,AGCTAGTATGGGGTAGTAGCCAATTCCAATCTTTGTTATCCGGAGTCACCTAGTGCAG,8320 fluorescence intensity (a.u.)
9,TCCACCATGGTCCCACATGTCAGCTGAATCTTCCACTGCACGGAGTCACCTAGTGCAG,9050 fluorescence intensity (a.u.)
10,TTATGCGTGACTTGTCTTTTTAATTTTTTAATAATTTTTTCGGAGTCACCTAGTGCAG,9370 fluorescence intensity (a.u.)
11,TGTAGTCTGTTGCGCCTCCCCTGCTGGTACGTGTGGCTCCCGGAGTCACCTAGTGCAG,9180 fluorescence intensity (a.u.)
12,GCCGCGGGTCGCCGGCGGGGTGGGTGGGAGGCCGTGATGGCGGAGTCACCTAGTGCAG,9870 fluorescence intensity (a.u.)
13,GCATATATGCTTGCGTGCGCGCTTCATGCATGTCAATAACCGGAGTCACCTAGTGCAG,8150 fluorescence intensity (a.u.)
14,CTTCGCTGTGTCGATTCTGTACGGCTTCGACTACTTCCTCCGGAGTCACCTAGTGCAG,8380 fluorescence intensity (a.u.)
15,GGTCACCGCCCGACTTTTGCGTCTTTGCCAACTGGTAATACGGAGTCACCTAGTGCAG,8060 fluorescence intensity (a.u.)
16,CCCCAGATGAGCAGCCCGCGCCCCGCCGGCGCCACCCGCGCGGAGTCACCTAGTGCAG,10200 fluorescence intensity (a.u.)
17,GTTAATTACGGGACTGTTCCTGCTAACGTCCTCCGTCCGACGGAGTCACCTAGTGCAG,9320 fluorescence intensity (a.u.)
18,GCTGGGCTGCTGCTCAACGCTGTCCTTCTCAGTCGCACATCGGAGTCACCTAGTGCAG,9840 fluorescence intensity (a.u.)
19,GCGAGCTGATGCATCCCACACAGTTCTCTTCTCTCGGCGCCGGAGTCACCTAGTGCAG,8080 fluorescence intensity (a.u.)
20,GACACAGAGAGATGCTTTTTTGACAACCATAGCCAAATTCCGGAGTCACCTAGTGCAG,10500 fluorescence intensity (a.u.)
21,CGGCTAGAGTGGTGGTGGTGGTGGTGGTGGCGTCGAGATGCGGAGTCACCTAGTGCAG,11700 fluorescence intensity (a.u.)

row,Sequence,binding signal
1,TCAAGTCATGCCAACCTAGCATAGTAGCTTGATCTTCTTTCGGAGTCACCTAGTGCAG,9370 fluorescence intensity (a.u.)
2,GCCCGCCGCCGTCTACTCCTCTCCCGCGCCGCCGGCCGCCCGGAGTCACCTAGTGCAG,8950 fluorescence intensity (a.u.)
3,CCACTCCGTCGCGTCGCCGTCACCTCCGCCCAGGAATCCGCGGAGTCACCTAGTGCAG,8490 fluorescence intensity (a.u.)
4,ATTTGCTATCATTTTTAACTTTATCTTTTTTTGGTAAAGTCGGAGTCACCTAGTGCAG,8820 fluorescence intensity (a.u.)
5,GTTCTGCCTTTGTTTCATCGGACAATCTATGGATCGACTCCGGAGTCACCTAGTGCAG,10800 fluorescence intensity (a.u.)
6,CCAGCTTATCCATCCTCATCCTCACACAAGCGAATCCGGTCGGAGTCACCTAGTGCAG,11800 fluorescence intensity (a.u.)
7,CACTACTTCACATGCAACACCGCACTCACACATCCTCGAACGGAGTCACCTAGTGCAG,12500 fluorescence intensity (a.u.)
8,GACTTTTCAACACATGACTGCATTGGCTGCTTGATATCGCCGGAGTCACCTAGTGCAG,8100 fluorescence intensity (a.u.)
9,TGCCGCCTCCTCTTCTTTCGCCTATCCTTCTTCAGCACAACGGAGTCACCTAGTGCAG,8300 fluorescence intensity (a.u.)
10,AGAGAGAGAGAGCCCGTGAGGTGTGGCTGGAATCGTCATGCGGAGTCACCTAGTGCAG,8360 fluorescence intensity (a.u.)
11,CGGGCGGGGCGGGGCGGGTTCGCTCGTCGGATGTGTGGATCGGAGTCACCTAGTGCAG,23900 fluorescence intensity (a.u.)
12,ATATATATATATATATATATATATATATATGTGTGTGTGTCGGAGTCACCTAGTGCAG,12600 fluorescence intensity (a.u.)
13,CCGCGCATTTTTTTGGTTCGAAATTCCTTTGCTAAGCAAACGGAGTCACCTAGTGCAG,8380 fluorescence intensity (a.u.)
14,GAACTGTAAAGTCTGTTGTTTGGATCCTCTGCATATTGTTCGGAGTCACCTAGTGCAG,8420 fluorescence intensity (a.u.)
15,AGTGCAACTCCTGTTGTGTGTTCTTGGTCATCGTCTTCATCGGAGTCACCTAGTGCAG,9780 fluorescence intensity (a.u.)
16,CTCTCACAGGCTCTTCACCATTTCGTGCAATCTCGTCGACCGGAGTCACCTAGTGCAG,9720 fluorescence intensity (a.u.)
17,AATTTTTTCCTGCTCTATCAATAGAACTTCGCACCGTCTCCGGAGTCACCTAGTGCAG,8050 fluorescence intensity (a.u.)
18,GTTTATCTCTATCTTTTTTTCATCTTCTCTCTATATATATCGGAGTCACCTAGTGCAG,11000 fluorescence intensity (a.u.)
19,AGCCTCGTCTTCTTGCACCGCCGCCGCCGACCCTTGCGTACGGAGTCACCTAGTGCAG,8790 fluorescence intensity (a.u.)
20,GAGGCCTATATTCTTTTCTGTATCCGGCCCGGCCGGCCCACGGAGTCACCTAGTGCAG,12100 fluorescence intensity (a.u.)
21,AAATCTACATGTACACAAATCTTTGATGCAATGCAATATTCGGAGTCACCTAGTGCAG,8140 fluorescence intensity (a.u.)

row,Sequence,binding signal
1,CGAAAAGTAAAGTTATTTGGCTACCGGGTGTTTTTAATTTCGGAGTCACCTAGTGCAG,8300 fluorescence intensity (a.u.)
2,TTATTGCATCTGTTTCACTGTGTTGCTCGGCCAAACGTACCGGAGTCACCTAGTGCAG,11300 fluorescence intensity (a.u.)
3,TCCCAGGGAGGTAGCAGCCCAGTCATTTCCTTGGTTTTTTCGGAGTCACCTAGTGCAG,8530 fluorescence intensity (a.u.)
4,GGATGGGGATGCCAGTTGTGGGATGGCGCAAGGATCTCTCCGGAGTCACCTAGTGCAG,10400 fluorescence intensity (a.u.)
5,ATCCTCGTCTACATTCACTGTACCACACCACAAAATATTTCGGAGTCACCTAGTGCAG,8430 fluorescence intensity (a.u.)
6,TCATCAATTTCTAACGCTGGTCTTATGTGCTAATTAACTTCGGAGTCACCTAGTGCAG,8790 fluorescence intensity (a.u.)
7,GCCACCACCTGCCTCACTGCCACGTGGAGCCCGCACCACCCGGAGTCACCTAGTGCAG,9850 fluorescence intensity (a.u.)
8,CCCCACACGGCCACACCTCGCGCCGGCTCCCTCCTCGCGTCGGAGTCACCTAGTGCAG,8790 fluorescence intensity (a.u.)
9,AAAGTATAGATATTCTACTTTATTTTGGTTTTGTATTAGTCGGAGTCACCTAGTGCAG,8280 fluorescence intensity (a.u.)
10,TGGATCATCCGGCTTCTGTTTTTCTCTCCACCACATATCTCGGAGTCACCTAGTGCAG,10100 fluorescence intensity (a.u.)
11,GTGCTAGTGTGTGTGGGTGTGGGAGGAGGGGCTCCCCGCGCGGAGTCACCTAGTGCAG,14700 fluorescence intensity (a.u.)
12,GATCTGTTCTTTGTTTGATTTATTTTTCTAATTTGTTGTTCGGAGTCACCTAGTGCAG,8270 fluorescence intensity (a.u.)
13,ATATGGTAGAGCTGTTCCTGTCCGTTTCTAATCCGTTTTCCGGAGTCACCTAGTGCAG,9850 fluorescence intensity (a.u.)
14,TGGTACACAAGTGATGCTTTGGTCTCTAACCTGATACTACCGGAGTCACCTAGTGCAG,8530 fluorescence intensity (a.u.)
15,ATATAAATTTCCCTATCGACCCTACATAGGGCGGGCATATCGGAGTCACCTAGTGCAG,8500 fluorescence intensity (a.u.)
16,CGGTGCTACTTCTTGCCTATACCTCGCAACTTCTCTCATGCGGAGTCACCTAGTGCAG,9040 fluorescence intensity (a.u.)
17,GATGTGCCCTTTATTCACAACATTTAACAATTGTTACTTGCGGAGTCACCTAGTGCAG,8520 fluorescence intensity (a.u.)
18,TCCAACCCAACCCCAACCCACACCCACACGGCCCAAACCCCGGAGTCACCTAGTGCAG,8480 fluorescence intensity (a.u.)
19,AACCTGTGCATTTTTGCGCAAATGTGCATATTGTTCTATCCGGAGTCACCTAGTGCAG,8700 fluorescence intensity (a.u.)
20,AGTGATGTGTGTGCTTGTGTGTGCTCTACTTCTACTCGTCCGGAGTCACCTAGTGCAG,12000 fluorescence intensity (a.u.)
21,GACCCCGTCGCCTGCCGCCGCCGACCTCACCACCTTCAGACGGAGTCACCTAGTGCAG,10000 fluorescence intensity (a.u.)

# As a short view, part of the list above:
row,Sequence,binding signal
13,ATATGGTAGAGCTGTTCCTGTCCGTTTCTAATCCGTTTTCCGGAGTCACCTAGTGCAG,9850 fluorescence intensity (a.u.)
14,TGGTACACAAGTGATGCTTTGGTCTCTAACCTGATACTACCGGAGTCACCTAGTGCAG,8530 fluorescence intensity (a.u.)
15,ATATAAATTTCCCTATCGACCCTACATAGGGCGGGCATATCGGAGTCACCTAGTGCAG,8500 fluorescence intensity (a.u.)
16,CGGTGCTACTTCTTGCCTATACCTCGCAACTTCTCTCATGCGGAGTCACCTAGTGCAG,9040 fluorescence intensity (a.u.)
